The record followed here is PubChem BioAssay AID445 (National Center for Advancing Translational Sciences (NCATS), 2006).

The list shows a part of the results. The main result of the screen is listed elsewhere. These columns were measured beside it and carry no call. Compounds called inactive in the main read-out are mostly missing here. Potencies come from curve fits of mixed quality, noted in brackets.

A word on the AC50: it is the midpoint of the concentration-response curve, whichever way the signal moves.

A short description of the assay: IkB Signaling. Particulars: ABC-DLBCL IkBa-CBG/CBR dual luciferase ratio (green luciferase fused to IkBa over red control in OCI-Ly3 lymphoma cells), 4 h. The gist of the method:
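In this assay, an IκBα–CBG68 fusion accumulates when IKK-driven degradation is blocked; native CBR normalizes for cell number. OCI-Ly3 cells were treated 4 h with compound and doxycycline, then green and red light read after Chroma-Glo addition.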

The mark [1] stands for this setting: measured here: control luc red channel unless noted.

With `Cc1nn(Cc2ccccc2)c2sc(C(=O)N3CCN(Cc4ccc5c(c4)OCO5)CC3)cc12`, the AC50 under setting [1] was 31.6 µM [falling, partial curve]. The same measure, in the same setting: to `COc1ccc(OC)c(NC(=O)c2cc3cccc(OC)c3oc2=O)c1` belongs 0.316 µM [falling, full curve]. Same read-out and setting: the result for `Cc1ccc(-c2nc3cccc(C)n3c2Nc2ccc3c(c2)OCO3)o1` reads 20 µM [falling, partial curve].

As for `Cc1ccc2nc(-c3ccc(SCC(=O)Nc4cc(C)on4)nc3)[nH]c2c1`, the AC50 under setting [1] was 5.01 µM [falling, partial curve]. Still for that read-out and setting: to `CCOc1ccccc1C(=O)N1CCc2cc(OC)c(OC)cc2C1COc1ccc(OC)cc1` (stereo not drawn) belongs 39.8 µM [falling, partial curve]; to `Cc1nn(-c2ccccc2)c(OC(=O)c2ccc(Cl)cc2)c1S(=O)(=O)c1ccccc1`, 0.316 µM [falling, full curve, poor fit]. On the same count and under the same terms, the result for `COc1ccc(CNS(=O)(=O)c2cc3c(cc2Cl)NC(=O)CO3)cc1` reads 15.8 µM [falling, partial curve]; that for `COc1ccccc1N=c1oc2cc(O)ccc2cc1C(N)=O`, 0.158 µM [falling, full curve]; that for `CCC(=O)Oc1c(Sc2ccc(C)cc2)c(C)nn1-c1ccccc1`, 6.31 µM [falling, full curve]. As for `CCOC(=O)c1cccc(NC(=O)CSc2nnc(COc3ccccc3)n2CC)c1`, the AC50 is 31.6 µM [falling, partial curve] (measured here: IkB-luc green channel) and 10 µM [falling, partial curve] (measured here: control luc red channel).

For the compound `CC(C)(C)c1cc(/C=C(\C#N)C(N)=S)cc(C(C)(C)C)c1O`, the AC50 under setting [1] is 1.58 µM [falling, full curve, poor fit]. The same measure, in the same setting: to `O=C(CSc1nc(=O)n(CCN2CCOCC2)c2c1CCC2)Nc1ccc(F)cc1F` belongs 5.01 µM [rising, single point].

With `Cc1c(Cl)cccc1NC(=O)CSc1nc(=O)[nH]c2c1CCC2`, the AC50 under setting [1] was 20 µM [falling, single point]. On the same count and under the same terms, the result for `Cc1c2cnn(-c3ccccc3)c(=O)c2c(C)n1CCCC(=O)Nc1cccc(F)c1` reads 25.1 µM [falling, partial curve]; that for `COc1ccc(CN(Cc2ccco2)C(=O)COc2ccccc2Cl)cc1`, 20 µM [falling, partial curve]; that for `COc1cccc(-n2c(SCC(=O)Nc3ccc4c(c3)OCO4)nc3c([nH]c4ccccc43)c2=O)c1`, 0.00631 µM [falling, full curve, poor fit].

In the case of `COc1cc(C2c3c(-c4cc(C)ccc4O)n[nH]c3C(=O)N2Cc2ccco2)cc(OC)c1OC` (stereo not drawn), the AC50 under setting [1] is 39.8 µM [falling, single point]. Same read-out and setting: the result for `O=C(O)c1ccc(COc2ccc(CO)cc2Cl)cc1` reads 12.6 µM [falling, partial curve]. On the same count and under the same terms, the result for `CCCc1nn2c(=O)cc(COC(=O)c3cccc(NC(=O)c4ccc(OCC)cc4)c3)nc2s1` reads 0.251 µM [falling, full curve]; that for `Cc1cc(Cl)ccc1NS(=O)(=O)c1c(C(=O)N2CCCCCC2)c(C)n(C)c1C`, 20 µM [falling, partial curve, poor fit]. On the same count and under the same terms, the result for `Cc1ccc(-c2csc3ncnc(Sc4nnc(CN5CCCCCC5=O)o4)c23)cc1` reads 6.31 µM [falling, partial curve]; that for `COC(=O)c1c(-c2ccc(Cl)cc2)noc1N1CCN(c2ccccc2OC)CC1`, 3.16 µM [falling, partial curve]; that for `COc1ccccc1S(=O)(=O)Cc1ccc(C(=O)N2CCN(c3cc(Cl)ccc3C)CC2)o1`, 15.8 µM [falling, partial curve]. For the compound `O=C(NCCc1ccccc1)c1ccc2nc(CCc3ccccc3)oc2c1`, the AC50 under setting [1] is 3.98 µM [rising, single point]. The same measure, in the same setting: the result for `COc1cc(C2CC(=O)Nc3ccc4ccccc4c32)ccc1OC(=O)C(C)C` (stereo not drawn) reads 39.8 µM [falling, partial curve].

Regarding `CC(C)(C)n1ncc2c(=O)n(Cc3c(F)cccc3Cl)cnc21`, the AC50 under setting [1] was 31.6 µM [falling, partial curve]. As for `CCCCn1c(CCCNC(=O)c2cccc(C)c2)nc2ccccc21`, the AC50 under setting [1] is 15.8 µM [falling, partial curve]. Turning to `Cc1nc2cc(-c3cccc(F)c3)nn2c(C)c1CCC(=O)Nc1ccccc1C(N)=O`, the AC50 under setting [1] was 1.26 µM [falling, partial curve]. On the same count and under the same terms, to `Cc1ccccc1-c1nnc(SCC(=O)Nc2ccc(Cl)cc2)n1N` belongs 20 µM [falling, partial curve]; to `O=C1C(=C2CCCCC2)SC(=S)N1Cc1ccco1`, 20 µM [falling, partial curve]; to `CCCCOc1ccccc1C(=O)N(Cc1sccc1C)C1CCS(=O)(=O)C1` (stereo not drawn), 39.8 µM [falling, single point]. Still for that read-out and setting: the result for `CCOc1ccc(NC(=O)CSc2c3c(nc4ccccc24)CCCC3)cc1` reads 5.01 µM [falling, partial curve]; that for `CC(C)(C)c1ccc(C(=O)N2CCCC(c3nc4c(nnn4Cc4cccc(F)c4)c(=O)[nH]3)C2)cc1` (stereo not drawn), 15.8 µM [falling, partial curve]. Same read-out and setting: the result for `COc1ccc(N2CCN(Cc3nc4c(c(=O)n(C)c(=O)n4C)n3C(C)C)CC2)cc1` reads 0.0631 µM [falling, full curve]. Take `CN(C)CCCn1c(-c2ccc(Cl)cc2)csc1=Nc1ccccc1`: under setting [1], the concentration at half-maximal activity (AC50) was 12.6 µM [falling, partial curve]. Same read-out and setting: the result for `Cc1ccc2nc(CN3CCN(S(=O)(=O)c4ccc(C(C)C)cc4)CC3)oc2c1` reads 5.01 µM [falling, full curve]; that for `Cc1ccc(C(=O)CSc2nnc(COc3cccc4cccnc34)o2)cc1`, 25.1 µM [falling, partial curve].

Turning to `CN1CCN(C2=C(Cl)C(=O)N(c3ccc(Cl)cc3)C2=O)CC1`, the AC50 under setting [1] was 3.98 µM [falling, partial curve]. The same measure, in the same setting: the result for `Cc1cc(O)c(C(c2ccccc2)N2CCN(c3ccc(F)cc3)CC2)c(=O)n1Cc1ccco1` (stereo not drawn) reads 6.31 µM [falling, partial curve, poor fit]. Turning to `Cc1cccc(CNc2ncnc3ccc(-c4c(C)noc4C)cc23)c1`, the AC50 under setting [1] was 316 nM [rising, full curve, poor fit] [measured here: IkB-luc green channel]. As for `Cc1ccc(-n2c(CCC(=O)O)ccc2-c2cccs2)cc1Cl`, the AC50 under setting [1] is 25.1 µM [falling, single point]. `CCc1ccc(C(=O)CC2(O)C(=O)N(Cc3ccc(C)cc3)c3ccccc32)cc1` (stereo not drawn): the AC50 under setting [1] was 15.8 µM [falling, partial curve]. Still for that read-out and setting: to `CC(C)c1nc2ccc(C(=O)NCc3ccccc3Br)cc2o1` belongs 39.8 µM [falling, single point]; to `CC(C)OCCCN1C(=O)c2[nH]nc(-c3ccccc3O)c2C1c1ccccc1F` (stereo not drawn), 39.8 µM [falling, single point]. Still for that read-out and setting: the result for `CCOc1ccccc1N1CC(c2nc3ccccc3n2CCCOc2ccc(OC)cc2)CC1=O` (stereo not drawn) reads 15.8 µM [falling, partial curve]. Same read-out and setting: the result for `COc1ccc2nc(NC(=O)CN(c3ccc(C)cc3)S(=O)(=O)c3c(C)nn(C)c3C)sc2c1` reads 10 µM [falling, partial curve]; that for `O=C(NCC1CCN(Cc2cccc(Cl)c2)CC1)Nc1ccc(F)c(Cl)c1`, 15.8 µM [falling, partial curve]. For `O=C(COc1ccccc1F)Nc1ccc2nc(SCC(=O)N3CCOCC3)sc2c1`, under setting [1], the AC50 is 25.1 µM [falling, single point]. On the same count and under the same terms, the result for `O=C(CN1CCOCC1)Nc1nc(-c2ccc3c(c2)CCN3S(=O)(=O)c2ccccc2)cs1` reads 31.6 µM [falling, partial curve].

As to `Cc1ccc(S(=O)(=O)Nc2cc(Cl)c3oc4c(c3c2)CCCC4)cc1`, the AC50 under setting [1] was 31.6 µM [falling, partial curve, poor fit]. The same measure, in the same setting: the result for `CCOc1ccc(CNC(=O)CSc2c3c(nc4cc(Cl)ccc24)CCCC3)cc1` reads 39.8 µM [falling, single point]; that for `COc1ccc(C(=O)NC(c2ccccc2Cl)c2cc(Cl)c3cccnc3c2O)cc1` (stereo not drawn), 31.6 µM [falling, single point].

Turning to `Cc1c(C)n(Cc2ccccc2)c2ccc(C(=O)N3CCN(c4ccccc4)CC3)cc12`, the AC50 under setting [1] is 1.26 µM [rising, full curve, poor fit]. Same read-out and setting: the result for `CCOC(=O)c1oc2c(c1C)-c1nn(Cc3cccc(Cl)c3)cc1CC2` reads 5.01 µM [falling, partial curve]; that for `CC(C)Oc1ccc(C(=O)N(Cc2ccc(N(C)C)cc2)Cc2ccco2)cc1`, 31.6 µM [falling, single point]; that for `CCOC(=O)c1c(C)oc2nc(C)nc(NCCc3ccc(C)cc3)c12`, 39.8 µM [falling, single point]. Still for that read-out and setting: the result for `COc1cc(NC(=O)CN2CCCN(Cc3cccc(F)c3)S2(=O)=O)cc(OC)c1` reads 15.8 µM [falling, partial curve, poor fit]; that for `Cc1cccc(NC(=O)Cn2c(=O)n(Cc3ccco3)c(=N)c3c4c(sc32)COC(C)(C)C4)c1`, 20 µM [falling, partial curve]; that for `CCCc1cc(N2CCN(c3ccccc3F)CC2)n2cnnc2n1`, 15.8 µM [falling, partial curve]. On the same count and under the same terms, to `C=CCNc1ncnc2c1cnn2-c1ccc(Cl)cc1` belongs 12.6 µM [falling, partial curve]. Turning to `CC1=C(C(=O)N2CCCCC2)C(c2ccc(Cl)cc2)n2c(nc3ccccc32)N1` (stereo not drawn), the AC50 under setting [1] was 25.1 µM [falling, single point]. For `Cc1ccc(CN2C(=O)c3ccccc3Sc3ccc(C(=O)N4CCOCC4)cc32)cc1`, the AC50 under setting [1] was 31.6 µM [falling, single point].
